PubChem BioAssay AID652243 – Drosophila RNAi Screening Center | 2013
Aim: 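Fly regulators of androgen-dependent reporter output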 (primary screen). System: Drosophila S2R+ cells. Reagent: long dsRNA against Drosophila genes. Timing: 72 h (48 h, then 24 h hormone). Conditions: synthetic androgen R1881 at 10 nM for 24 h. Measurement: 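Per-well raw luminescence of the androgen-driven firefly reporter and of the Renilla control, two replicates each, without normalisation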. Scale: firefly reporter light: higher = more light from androgen-responsive reporter; Renilla control light: higher = more constitutive control signal (cell number, transfection). Active means: 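Hit when the log firefly-to-Renilla ratio dropped or increased by a fixed fold versus the mean of GFP or LacZ controls across duplicate plates; lowering cut given as 1.5 and as 3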. Calls: active = hit: reporter lowered or raised; inactive = no hit.
In all, the deposit lists about 24,000 reagents; below is a random part of those that have a named target and a result. Over the whole deposit, 246 (1%) were called active. 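Plates not normalised; calls are printed but the firefly/Renilla ratio behind them is not deposited; fold cut for lowering reported inconsistently.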 The raw values are shown without normalisation. Reagent sequences are not shown. Not given: the amount of reagent.

ND-20 (NADH dehydrogenase (ubiquinone) 20 kDa subunit) [DRSC20164] | firefly reporter light, replicate 1 = 1.06e5; firefly reporter light, replicate 2 = 98887; Renilla control light, replicate 1 = 7.92e5; Renilla control light, replicate 2 = 8.64e5; outcome = inactive
CG4592 [DRSC02761] | firefly reporter light, replicate 1 = 6.38e5; firefly reporter light, replicate 2 = 5.28e5; Renilla control light, replicate 1 = 2.25e6; Renilla control light, replicate 2 = 2.26e6; outcome = inactive
mTerf3 (mitochondrial transcription termination factor 3) [DRSC11759] | firefly reporter light, replicate 1 = 66270; firefly reporter light, replicate 2 = 68595; Renilla control light, replicate 1 = 5.46e5; Renilla control light, replicate 2 = 4.62e5; outcome = inactive
CG14866 [DRSC14989] | firefly reporter light, replicate 1 = 2.64e5; firefly reporter light, replicate 2 = 2.17e5; Renilla control light, replicate 1 = 3.53e6; Renilla control light, replicate 2 = 2.90e6; outcome = inactive
CG12520 [DRSC09892] | firefly reporter light, replicate 1 = 1.22e5; firefly reporter light, replicate 2 = 1.01e5; Renilla control light, replicate 1 = 1.24e6; Renilla control light, replicate 2 = 1.46e6; outcome = inactive
lncRNA:sphinx (long non-coding RNA:sphinx) [DRSC17199] | firefly reporter light, replicate 1 = 2.32e5; firefly reporter light, replicate 2 = 3.05e5; Renilla control light, replicate 1 = 3.26e6; Renilla control light, replicate 2 = 3.57e6; outcome = inactive
NELF-B [DRSC17734] | firefly reporter light, replicate 1 = 58030; firefly reporter light, replicate 2 = 66417; Renilla control light, replicate 1 = 4.18e5; Renilla control light, replicate 2 = 3.31e5; outcome = inactive
NELF-B [DRSC26242] | firefly reporter light, replicate 1 = 3.01e5; firefly reporter light, replicate 2 = 3.63e5; Renilla control light, replicate 1 = 6.67e5; Renilla control light, replicate 2 = 7.09e5; outcome = inactive
CG14877 [DRSC15001] | firefly reporter light, replicate 1 = 1.56e5; firefly reporter light, replicate 2 = 1.32e5; Renilla control light, replicate 1 = 2.32e6; Renilla control light, replicate 2 = 2.04e6; outcome = inactive
CG14877 [DRSC30033] | firefly reporter light, replicate 1 = 2.19e5; firefly reporter light, replicate 2 = 2.55e5; Renilla control light, replicate 1 = 1.20e6; Renilla control light, replicate 2 = 1.35e6; outcome = inactive
CG7025 [DRSC03002] | firefly reporter light, replicate 1 = 2.22e5; firefly reporter light, replicate 2 = 1.77e5; Renilla control light, replicate 1 = 1.44e6; Renilla control light, replicate 2 = 1.44e6; outcome = inactive
CG15473 [DRSC18056] | firefly reporter light, replicate 1 = 4.73e5; firefly reporter light, replicate 2 = 3.74e5; Renilla control light, replicate 1 = 2.42e6; Renilla control light, replicate 2 = 2.49e6; outcome = inactive
CG18789 [DRSC02696] | firefly reporter light, replicate 1 = 2.20e5; firefly reporter light, replicate 2 = 2.92e5; Renilla control light, replicate 1 = 1.85e6; Renilla control light, replicate 2 = 2.37e6; outcome = inactive
CG32271 [DRSC08198] | firefly reporter light, replicate 1 = 61626; firefly reporter light, replicate 2 = 80462; Renilla control light, replicate 1 = 9.39e5; Renilla control light, replicate 2 = 9.34e5; outcome = inactive
CG32271 [DRSC27093] | firefly reporter light, replicate 1 = 3.35e5; firefly reporter light, replicate 2 = 2.72e5; Renilla control light, replicate 1 = 6.97e5; Renilla control light, replicate 2 = 6.04e5; outcome = inactive
CG10939 [DRSC06019] | firefly reporter light, replicate 1 = 9.94e5; firefly reporter light, replicate 2 = 9.09e5; Renilla control light, replicate 1 = 2.31e6; Renilla control light, replicate 2 = 2.22e6; outcome = inactive
CG10939 [DRSC21734] | firefly reporter light, replicate 1 = 4.17e5; firefly reporter light, replicate 2 = 4.42e5; Renilla control light, replicate 1 = 1.97e6; Renilla control light, replicate 2 = 1.99e6; outcome = inactive
nompB (no mechanoreceptor potential B) [DRSC03701] | firefly reporter light, replicate 1 = 1.96e5; firefly reporter light, replicate 2 = 1.94e5; Renilla control light, replicate 1 = 1.72e6; Renilla control light, replicate 2 = 1.57e6; outcome = inactive
nompB (no mechanoreceptor potential B) [DRSC03731] | firefly reporter light, replicate 1 = 3.59e5; firefly reporter light, replicate 2 = 6.31e5; Renilla control light, replicate 1 = 1.14e6; Renilla control light, replicate 2 = 1.69e6; outcome = inactive
hts (hu li tai shao) [DRSC28097] | firefly reporter light, replicate 1 = 4.68e5; firefly reporter light, replicate 2 = 3.17e5; Renilla control light, replicate 1 = 1.54e6; Renilla control light, replicate 2 = 1.25e6; outcome = inactive
hts (hu li tai shao) [DRSC38863] | firefly reporter light, replicate 1 = 9.34e5; firefly reporter light, replicate 2 = 7.17e5; Renilla control light, replicate 1 = 2.85e6; Renilla control light, replicate 2 = 2.21e6; outcome = inactive

A few values from the list:
CG10939 [DRSC21734], Renilla control light, replicate 1 → 1.97e6
ND-20 (NADH dehydrogenase (ubiquinone) 20 kDa subunit) [DRSC20164], Renilla control light, replicate 2 = 8.64e5
